Here are results for one molecule from US20090220562A1, “Osteogenic and anti-adipogenic oxysterols” (priority 2005, published 2009).

Type in all cases: cell-based, mouse
One test relates to marrow stromal cells. In words: Osteogenic differentiation of marrow stromal cells (marker not specified: ALP activity, osteocalcin mRNA, mineral formation). Particulars: 22R+20S and 22S+20S; SC-560 1-20 μM; NS-398 20 μM (highest non-toxic dose). As to the method: The purpose of the study was to identify other osteogenic and anti-adipogenic oxysterols based on the chemical structure of previously identified oxysterols. The ability of such candidate oxysterol molecules to induce the formation of osteoblastic cells in cultures of marrow stromal cells (which are progenitors of osteoblastic cells that make bone) were tested. In order to assess osteogenic differentiation of cells, one or more markers of osteogenic differentiation were measured in untreated cells and cells treated with the test oxysterols. These markers included: alkaline phosphatase activity, osteocalcin mRNA expression and mineral formation in cultures of marrow stromal cells. Activation of either one or more than one marker by a single or combination oxysterols is indicative of their osteogenic property.

The test system of test [1] is M2-10B4 marrow stromal cells. In words: Alkaline phosphatase (ALP) activity assay on whole cell extracts of M2-10B4 marrow stromal cells. Particulars: 22R+20S (RS); pretreatment with SC-560 10 μM, ACA 25 μM, AACOCF3 20 μM or PD98059 20 μM; 3 days. The method, then:
Cells: M2-10B4 mouse marrow stromal cell line obtained from American Type Culture Collection (ATCC, Rockville, Md., U.S.A.) was derived from bone marrow stromal cells of a (C57BL/6J x C3H/HeJ) Fl mouse, and support human and murine myelopoiesis in long-term cultures (as per ATCC) and have the ability to differentiate into osteoblastic and adipocytic cells. Unless specified, these cells were cultured in RPMI 1640 containing 10% heat-inactivated FBS, and supplemented with 1 mM sodium pyruvate, 100 U/ml penicillin, and 100 U/ml streptomycin (all from Irvine Scientific).
Cells were always treated at 90% confluence. […]
Next, a combination of 22R and 20S oxysterols (RS, 2.5 μM each) were added in the presence or absence of SC as indicated. After 3 days, ALP activity was measured as described earlier. […] (B) M2 cells were treated as described in (A) and after 10 days matrix mineralization in cultures was quantified by a ^45Ca incorporation assay as described earlier. […] After 8 days, total RNA was isolated and analyzed for osteocalcin (Osc) and […] expression by Northern blotting as previously described. […] After 3 days, ALP activity was measured as previously described. […] After 10 days, matrix mineralization in cultures was quantified using a ^45Ca incorporation assay as previously described. […]

Another test has as its system M2 cells. In words: Inhibition of osteogenic differentiation of M2 cells by oxidative stress (XXO, MM-LDL): blocking, protection and rescue. Particulars: SC-560 20 μM with SS 2.5 μM pretreatment. As to the method:
RNA Isolation and Northern Blot Analysis—Total RNA was isolated using the RNA isolation kit from Stratagene (La Jolla, Calif., USA). Northern blotting and analysis of osteocalcin mRNA and 18S rRNA expression was performed as previously described (23).
After 14 days, matrix mineralization in cultures was quantified using a ^45Ca incorporation assay.

Regarding `COc1ccc(-n2nc(C(F)(F)F)cc2-c2ccc(Cl)cc2)cc1` [SC-560, reference compound], the “inhibition of the osteogenic effects of oxysterol combinations” value in the test on marrow stromal cells is on record as “significantly inhibited”. The “effect on oxysterol-induced alkaline phosphatase activity” value in test [1] is listed as “inhibited”. Further, the “effect of COX-1 inhibitor on SS protection against XXO and MM-LDL (alkaline phosphatase activity)” value in the test on M2 cells was “no longer protected”.
